Reference: publication PMC12457717
Results are given in words; binding and its absence hold for the method and conditions named. In cells and extracts the contact can be indirect. Some entries that bind do so weakly or less than the wild type. For some assays here: Tags and fused reporters may be left off the sequences shown. Each block holds one binder with its values, some of them ahead of it.

Key:
[1] = molecular target: T1, Flag-FBXO32 (F-Box Protein 32) (UniProt Q969P5); assay: co-IP; anti-Flag antibody IP from lysate of Flag-FBXO32-overexpressing HEK293T cells; ice-cold IP buffer, antibody-conjugated beads overnight at 4°C, western blotting
T1 sequence: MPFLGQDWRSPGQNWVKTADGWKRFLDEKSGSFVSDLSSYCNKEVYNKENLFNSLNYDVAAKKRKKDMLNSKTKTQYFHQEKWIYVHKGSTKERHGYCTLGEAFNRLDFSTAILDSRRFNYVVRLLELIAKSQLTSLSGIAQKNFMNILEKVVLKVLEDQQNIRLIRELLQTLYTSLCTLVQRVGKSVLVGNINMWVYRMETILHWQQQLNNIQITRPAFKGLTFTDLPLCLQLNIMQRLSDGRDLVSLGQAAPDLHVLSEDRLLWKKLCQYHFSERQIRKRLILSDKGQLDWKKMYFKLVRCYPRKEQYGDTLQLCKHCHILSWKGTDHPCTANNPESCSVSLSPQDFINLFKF

[2] = molecular target: T2, F-Box Protein 32 (FBXO32), endogenous in MHCC97H cells (human (endogenous in MHCC97H)) (UniProt Q969P5); assay: co-IP; endogenous IP from MHCC97H cell lysate; antibody-conjugated beads overnight at 4°C, western blotting; which protein was precipitated is not told
T2 sequence: T1 sequence

binding [1]: binds
B1: pleckstrin homology domain leucine-rich repeat protein phosphatase 2 (PHLPP2), in HEK293T cells (protein, UniProt Q6ZVD8 1-1323)
chain: MKRNGSRNCLNRRSRFGSRERDWLREDVKRGCVYLYGADTTTATTTTTTSSSSSSSSSSSDLHLVLCTVETPASEICAGEGRESLYLQLHGDLVRRLEPTERPLQIVYDYLSRLGFDDPVRIQEEATNPDLGCMIRFYGEKPCHMDRLDRILLSGIYNVRKGKTQLHKWAERLVVLCGTCLIVSSVKDCQTGKMHILPLVGGKIEEVKRRQYSLAFSSAGAQAQTYHVSFETLAEYQRWQRQASKVVSQRISTVDLSCYSLEEVPEHLFYSQDITYLNLRHNFMQLERPGGLDTLYKFSQLKGLNLSHNKLGLFPILLCEISTLTELNLSCNGFHDLPSQIGNLLNLQTLCLDGNFLTTLPEELGNLQQLSSLGISFNNFSQIPEVYEKLTMLDRVVMAGNCLEVLNLGVLNRMNHIKHVDLRMNHLKTMVIENLEGNKHITHVDLRDNRLTDLDLSSLCSLEQLHCGRNQLRELTLSGFSLRTLYASSNRLTAVNVYPVPSLLTFLDLSRNLLECVPDWACEAKKIEVLDVSYNLLTEVPVRILSSLSLRKLMLGHNHVQNLPTLVEHIPLEVLDLQHNALTRLPDTLFSKALNLRYLNASANSLESLPSACTGEESLSMLQLLYLTNNLLTDQCIPVLVGHLHLRILHLANNQLQTFPASKLNKLEQLEELNLSGNKLKTIPTTIANCKRLHTLVAHSNNISIFPEILQLPQIQFVDLSCNDLTEILIPEALPATLQDLDLTGNTNLVLEHKTLDIFSHITTLKIDQKPLPTTDSTVTSTFWSHGLAEMAGQRNKLCVSALAMDSFAEGVGAVYGMFDGDRNEELPRLLQCTMADVLLEEVQQSTNDTVFMANTFLVSHRKLGMAGQKLGSSALLCYIRPDTADPASSFSLTVANVGTCQAVLCRGGKPVPLSKVFSLEQDPEEAQRVKDQKAIITEDNKVNGVTCCTRMLGCTYLYPWILPKPHISSTPLTIQDELLILGNKALWEHLSYTEAVNAVRHVQDPLAAAKKLCTLAQSYGCQDNVGAMVVYLNIGEEGCTCEMNGLTLPGPVGFASTTTIKDAPKPATPSSSSGIASEFSSEMSTSEVSSEVGSTASDEHNAGGLDTALLPRPERRCSLHPTPTSGLFQRQPSSATFSSNQSDNGLDSDDDQPVEGVITNGSKVEVEVDIHCCRGRDLENSPPLIESSPTLCSEEHARGSCFGIRRQNSVNSGMLLPMSKDRMELQKSPSTSCLYGKKLSNGSIVPLEDSLNLIEVATEVPKRKTGYFAAPTQMEPEDQFVVPHDLEEEVKEQMKQHQDSRLEPEPHEEDRTEPPEEFDTAL

binding [2]: binds
B2: pleckstrin homology domain leucine-rich repeat protein phosphatase 2 (PHLPP2), endogenous in MHCC97H cells (protein, UniProt Q6ZVD8 1-1323)
chain: B1 chain
